# Measured values published in PubChem BioAssay (EPA / NIEHS).
# Several values for one entry are separate records, joined by “and”; a condition that tells them apart may be missing. Equal values may be shown once. The shares of active, inactive and inconclusive entries below differ from those in the screen. Where the call is inconclusive, the potency comes from a doubtful curve fit. Activity calls are given as the source filed them. Rule for the calls: active = hit-call score of the fitted dose curve at least 0.9, where 1 is the maximum; inconclusive = response in the unintended direction; inactive = score below 0.9.
# Assay: IUF_NPC5_oligodendrocyte_differentiation_120hr: Leibniz Research Institute for Environmental Medicine (IUF) 120-hour Oligodendrocyte Differentiation Assay (NPC5) (AID 2284304)
# Protocol: IUF_NPC2-5 is a cell-based, multiplexed assay that uses hNPC, a human primary neural progenitor cells, with measurements taken at 72 or 120 hours after chemical dosing in a 96-well plate. Human neural progenitor cells (hNPC) are generated from human fetal brain cortex at gestational week (GW) 16-19. In the neural progenitor cell migration and differentiation assay (NPC2-5), hNPCs grown as spheres are plated on an extracellular matrix and migrate and differentiate out of the sphere core. The processes radial glia migration, neuronal and oligodendrocyte migration as well as neuronal differentiation, neuronal morphology and oligodendrocyte differentiation are studied using automated phase contrast imaging and automated fluorescence imaging in combination with high content image analysis. In parallel, the cell viability is assessed using an alamar blue viability assay and the cytotoxicity using a lactate dehydrogenase dependent membrane integrity assay.IUF_NPC5_oligodendrocyte_differentiation_120hr is one of 12 assay components measured from the IUF_NPC2-5 assay. Oligodendrocyte differentiation at 120 hr is determined as the number of all O4-positive cells in percent of the number of Hoechst-positive nuclei in the total neurosphere migration area (see IUF_NPC2a_ glia_migration_120hr) after 120 hr of migration/differentiation. Oligodendrocytes are automatically identified using a convolutional neural network (CNN) that was trained using manually annotated images of differentiated oligodendrocytes.Data from the IUF_NPC5_oligodendrocyte_differentiation_120hr component was analyzed at the endpoint IUF_NPC5_oligodendrocyte_differentiation_120hr in the positive analysis fitting direction relative to DMSO as the negative control and baseline of activity. Using a type of differentiation reporter, loss-of-signal activity can be used to understand developmental effects.
# Culture protocol: After the cell expansion period the cells are cultured for up to four weeks in which they are passaged every week as described in 3.6. Between one to three days after passaging spheres at a size of 0.3 mm are picked for the test method. For the assessment of neural progenitor cell migration and differentiation, the spheres are plated on poly-D-lysine/laminin coated 96-well flat bottom plates in differentiation medium (N2) to initiate migration and differentiation. Thereby one 0.3 mm big sphere is plated in the middle of a well. The differentiation medium consists of DMEM and Ham's F12 at a ratio of 3 to 1 supplemented with 1% N2 and 1% penicillin and streptomycin. Within 5 days NPCs radially migrate out of the sphere core and differentiate into radial glia cells (nestin positive), neurons (TUBB3 positive), oligodendrocytes (O4 positive) and astrocytes (GFAP positive). Cultivation during the test method is performed at 37C and 5% CO2 at a ph of 7.2-7.6.Exposure: 0.3 mm big hNPC are plated in the already prepared test conditions. Exposure starts at day 0 of differentiation and is continued over five days of differentiation until the experiment is terminated. Cells are fed with fresh medium at day 3 of differentiation. Therefore, half of the test condition solution (e.g. solvent control or compound dilution) is replaced by freshly prepared test condition solution.Test Method: Migration distance and cytotoxicity is determined after 72 hours based on brightfield images of each well. The assay is terminated by the assessment of cell viability and cytotoxicity as well as cell fixation after 120 h. Immunocytochemistry is performed for Hoechst positive nuclei, TUBB3 positive neurons and O4 positive oligodendrocytes. On the ICC images, migration after 120 hours, neuronal and oligodendrocyte number, neuronal morphology and neuron/oligodendrocyte specific migration is assessed. immunocytochemical staining (ICC) generates an image for each sphere. […]
SMILES,AC50,outcome
C#CCOC(=O)[C@@H](C)Oc1ccc(Oc2ncc(Cl)cc2F)cc1,inconclusive: 50 µM,
OC[C@@H](O)[C@@H](O)[C@H](O)[C@@H](O)CO,inconclusive: 9.65 µM,
N#Cc1ccc(CC(=NNC(=O)Nc2ccc(OC(F)(F)F)cc2)c2cccc(C(F)(F)F)c2)cc1,active: 0.784 µM,
COCCc1ccc(OCC(O)CNC(C)C)cc1 (stereo unspecified),,inactive
CN1CCC[C@H]1c1cccnc1,,inactive
CN(C)CCOC(C)(c1ccccc1)c1ccccn1 (stereo unspecified),inconclusive: 0.00709 µM,
Oc1cccc2ccccc12,inconclusive: 1.98 µM,
O=C1O[C@H]([C@@H](O)CO)C(O)=C1O,inconclusive: 7.74 µM,
CC(CCl)OP(=O)(OC(C)CCl)OC(C)CCl (stereo unspecified),active: 5.43 µM and inconclusive: 21.2 nM,
Nc1ccn([C@@H]2O[C@H](CO)[C@@H](O)[C@@H]2O)c(=O)n1,inconclusive: 0.0845 µM,
CN(C)CCCN1c2ccccc2Sc2ccc(Cl)cc21,active: 0.756 µM,
